Results deposited as PubChem BioAssay AID743121 (NCATS, 2013).
Test: 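Partners whose loss is lethal together with topoisomerase I blockade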 (primary screen). System: MDA-MB-231 cells, a human breast cancer line. Knock-down reagent: single siRNA against human genes, 20 nM siRNA (0.8 pmol per well). Timing: 120 h (drug added 48 h after transfection, read 72 h later). Conditions: camptothecin 20 nM (about EC30) for 72 h; vehicle 0.1% DMSO in parallel plates. Measured: 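CellTiter-Glo ATP signal, scaled to control siRNA as percent viability; sensitisation given as log2 of untreated divided by camptothecin-treated viability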. Direction: log2 vehicle/camptothecin viability: higher = stronger sensitisation to camptothecin; viability with camptothecin and viability without drug: higher = more viable cells. Hit rule: 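Active genes have an RSA gene-level p-value below 0.001, computed from the ratios of their separate siRNAs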.
Here is one part, drawn at random, of about 26,000 reagents tested. In the full data, 167 (0.63%) were called active. 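Calls are per gene from RSA p-values that are not deposited; an individual active-marked siRNA can sensitise only weakly.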 The numbers tell different reagents against one gene apart.

Gene | reagent | log2 vehicle/camptothecin viability | viability with camptothecin (% of control) | viability without drug (% of control) | call
IL27RA | 1 | 0.189 | 42.4 | 48.3 | inactive
IL27RA | 2 | 0.0941 | 17.1 | 18.2 | inactive
IL27RA | 3 | 0.0601 | 76.3 | 79.6 | inactive
SUFU | 1 | 1.1 | 19.8 | 42.4 | inactive
SUFU | 2 | -0.013 | 88.9 | 88.1 | inactive
SUFU | 3 | 0.249 | 70.3 | 83.6 | inactive
SUFU | 4 | 0.035 | 95.4 | 97.8 | inactive
DAPK2 | 1 | -0.0278 | 118 | 115 | inactive
DAPK2 | 2 | 0.195 | 73.5 | 84.2 | inactive
DAPK2 | 3 | 0.361 | 36.2 | 46.4 | inactive
DAPK2 | 4 | -0.71 | 69.2 | 42.3 | inactive
TFF1 | 1 | 0.484 | 25.1 | 35.2 | inactive
TFF1 | 2 | 0.175 | 23.8 | 26.8 | inactive
TFF1 | 3 | -0.0814 | 40.8 | 38.6 | inactive
TFF1 | 4 | 0.17 | 86.4 | 97.1 | inactive
FBXL18 | 1 | -0.413 | 99.5 | 74.8 | inactive
FBXL18 | 2 | -0.521 | 79.8 | 55.6 | inactive
FBXL18 | 3 | -0.105 | 61.6 | 57.2 | inactive
FBXL18 | 4 | -0.484 | 91.5 | 65.4 | inactive

Records above whose target name starts with D or d (4):
Gene | reagent | log2 vehicle/camptothecin viability | viability with camptothecin (% of control) | viability without drug (% of control) | call
DAPK2 | 1 | -0.0278 | 118 | 115 | inactive
DAPK2 | 2 | 0.195 | 73.5 | 84.2 | inactive
DAPK2 | 3 | 0.361 | 36.2 | 46.4 | inactive
DAPK2 | 4 | -0.71 | 69.2 | 42.3 | inactive

Additional reagents:
Gene | reagent | log2 vehicle/camptothecin viability | viability with camptothecin (% of control) | viability without drug (% of control) | call
FN3K | 1 | -0.546 | 81.8 | 56 | inactive
FN3K | 2 | -0.471 | 95.5 | 68.8 | inactive
FN3K | 3 | -0.239 | 70.3 | 59.5 | inactive
FN3K | 4 | -0.00379 | 55.2 | 55 | inactive
ATXN3L | 1 | 3.32 | 8.73 | 87.2 | active
ATXN3L | 2 | 0.19 | 82.8 | 94.5 | active
ATXN3L | 3 | 0.61 | 47.5 | 72.5 | active
ATXN3L | 4 | -0.426 | 132 | 98.6 | active
TNFSF10 | 1 | -0.998 | 92.5 | 46.3 | inactive
TNFSF10 | 2 | -0.0939 | 109 | 102 | inactive
TNFSF10 | 3 | -0.0141 | 91.5 | 90.6 | inactive
TNFSF10 | 4 | -0.252 | 72.8 | 61.1 | inactive
TBX5 | 1 | 0.369 | 12.1 | 15.6 | inactive
TBX5 | 2 | 0.184 | 95.3 | 108 | inactive
TBX5 | 3 | 0.0341 | 82.2 | 84.2 | inactive
TBX5 | 4 | -0.0615 | 55.7 | 53.4 | inactive
PTHLH | 1 | -0.00814 | 99.8 | 99.2 | inactive
PTHLH | 2 | -0.36 | 49.8 | 38.8 | inactive
PTHLH | 3 | 0.286 | 59.4 | 72.4 | inactive
PTHLH | 4 | -0.339 | 47.7 | 37.7 | inactive
LHX3 | 1 | 0.734 | 9.46 | 15.7 | inactive
LHX3 | 2 | -0.0386 | 64.5 | 62.8 | inactive
LHX3 | 3 | 0.229 | 91.8 | 108 | inactive
LHX3 | 4 | -0.612 | 70.4 | 46.1 | inactive
EDNRB | 1 | -0.174 | 111 | 98.6 | inactive
EDNRB | 2 | -0.318 | 54.7 | 43.8 | inactive
EDNRB | 3 | -0.112 | 97.5 | 90.2 | inactive
EDNRB | 4 | 0.0449 | 107 | 110 | inactive
